The campaign covered roughly 400,000 compounds. About 5,500 (1.4%) were called active. This list was built around the results that the source calls inconclusive (neither active nor inactive); the mix of calls is not that of the screen. The call rests on the fitted dose curve; in most records, active means well fitted cell-killing curve with a large enough effect; inconclusive means small, poorly fitted or top-dose-only effect, or effect the other way; inactive means flat fitted curve, though single readings scatter. Potencies beside an inconclusive call are fits to weak or partial responses and may not hold up.
experiment: qHTS assay for MDR1-selective chemotherapeutics: Primary screen using the parental adenocarcinoma cell KB-3-1; details: KB-3-1 viability, CellTiter-Glo ATP luminescence, 72 h; activity change, negative = cytotoxic: at 46.1 µM (top of the series); further: nearly all actives have a fitted effect of over 60% in size
In short: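 Parental KB-3-1 viability, qHTS format: 72 h compound exposure, 37 °C; CellTiter-Glo; media-only wells and DMSO plates as controls; concentration-effect fits on corrected data.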
On the % scale 0 is the no-effect control and ±100 the full control effect; potency means the concentration at half of the fitted maximal effect.

SMILES	Potency	activity change, negative = cytotoxic
COc1ccc(/C=C/C(=O)NC(=S)NNC(=O)c2c(-c3ccccc3)noc2C)cc1	inconclusive: 29.1 µM [cytotoxic, single point]	
C[C@H](NC(=O)c1nc[nH]c1C(=O)N1CCN(C(=O)OC(C)(C)C)CC1)C(=O)OC(C)(C)C	inactive	
CN(Cc1c(C(=O)N/N=C/c2ccccc2O)nnn1-c1nonc1N)C1CCCCC1	active: 18.4 µM	
CCOC(=O)COc1ccc(C2NC(C(=O)O)CS2)cc1 (stereo not drawn)	inactive	
Fc1ccc(CNc2ncnc3nc[nH]c23)cc1	inconclusive: 8.2 µM [cytotoxic, partial curve]	inconclusive: 35.2%
CCN1C(=O)[C@H]2[C@@H](c3ccc(-c4cccc(Cl)c4)cc3)N[C@@](CC(C)C)(C(=O)OC)[C@H]2C1=O	inconclusive: 25.9 µM [cytotoxic, single point]	
CCN(CC)CCNC(=O)Cn1cnc2sc(C)c(S(=O)(=O)N3CC(C)CC(C)C3)c2c1=O (stereo not drawn)	inconclusive: 18.4 µM [cytotoxic, single point]	
COc1ccc(N2CC(C(=O)N/N=C/c3cc([N+](=O)[O-])ccc3O)CC2=O)cc1 (stereo not drawn)	inconclusive: 18.4 µM [cytotoxic, single point]	
Nc1nc2ncc(C(=O)c3cc(Cl)cc(Cl)c3O)cc2s1	inactive	
COc1cc(/C=C2\SC(=S)N(NC(=O)c3ccncc3)C2=O)ccc1O	inactive	
CC(c1ccccc1)n1cc2c(c1-c1ccccc1Br)c(=O)n(C)c(=O)n2C (stereo not drawn)	inactive	
Cc1ccc2c(c1)-c1c(cnc3cc(-c4ccc(F)cc4)nn13)CO2	inactive	
Cc1ccc(-c2nnn(CC(=O)N(c3ccccc3F)C(C(=O)NCC3CCCO3)c3c[nH]c4ccccc34)n2)cc1 (stereo not drawn)	inconclusive: 29.1 µM [cytotoxic, single point]	
CN1CCN(c2ccc(Cl)cc2NC(=O)c2ccc(S(=O)(=O)N(C)C)cc2)CC1	inactive	
NC(=O)c1ccc(Oc2cccc3cccnc23)c([N+](=O)[O-])c1	inactive	
Cc1nc2ccccc2n1CC(=O)NC(C)C1CC2CCC1C2 (stereo not drawn)	inconclusive: 20.6 µM [cytotoxic, partial curve, poor fit]	
Cc1[nH]n(-c2ccccc2)c(=O)c1N=Nc1ccc2c(c1)OCCO2	inactive	
COc1ccc([N+](=O)[O-])cc1/C=N/NC(=O)c1nonc1N	inactive	
Cc1cc(N2CCN(C(=O)c3ccco3)CC2)n2nc(C)c(-c3ccccc3)c2n1	inconclusive: 29.1 µM [cytotoxic, single point]	
COc1ccc(CCNC(=O)C(=O)NCC2CCCN2S(=O)(=O)c2ccccc2)cc1 (stereo not drawn)	inactive	
CSCCC(NC(=O)COc1ccccc1)C(=O)OCCOc1ccc(F)cc1 (stereo not drawn)	inconclusive: 10.3 µM [rising, partial curve, poor fit]	
Cc1ccc(S(=O)(=O)N2CCC(=O)N(C(COCc3ccccc3)Cc3ccccc3)CC2)cc1 (stereo not drawn)	inconclusive: 32.6 µM [cytotoxic, single point]	
Cc1ccc(C(NC(=O)C(C)C)c2cc([N+](=O)[O-])c3cccnc3c2O)cc1 (stereo not drawn)	inconclusive: 7.31 µM [cytotoxic, partial curve]	

Entries above with fluorine, in the order listed:
SMILES	Potency	activity change, negative = cytotoxic
Fc1ccc(CNc2ncnc3nc[nH]c23)cc1	inconclusive: 8.2 µM [cytotoxic, partial curve]	inconclusive: 35.2%
Cc1ccc2c(c1)-c1c(cnc3cc(-c4ccc(F)cc4)nn13)CO2	inactive	
Cc1ccc(-c2nnn(CC(=O)N(c3ccccc3F)C(C(=O)NCC3CCCO3)c3c[nH]c4ccccc34)n2)cc1 (stereo not drawn)	inconclusive: 29.1 µM [cytotoxic, single point]	
CSCCC(NC(=O)COc1ccccc1)C(=O)OCCOc1ccc(F)cc1 (stereo not drawn)	inconclusive: 10.3 µM [rising, partial curve, poor fit]	

The results go on.

SMILES	Potency	activity change, negative = cytotoxic
O=C(CSc1ccc(-c2cccs2)nn1)N1CCCCC1	inactive	
O=C(N=C1SC2CS(=O)(=O)CC2N1c1ccc(Cl)c(Cl)c1)C1CCCO1 (stereo not drawn)	inactive	
CN(C)CCCCCCNc1nccc(N2CCN(C)CC2)n1	inconclusive: 18.4 µM [cytotoxic, partial curve, poor fit]	
COC(=O)[C@@]12C[C@@H](CC(=O)N3CCCC3)C(=O)N(Cc3cccc4ccccc34)C1=CCC(C)(C)C2	inconclusive: 23.1 µM [cytotoxic, single point]	
CCOc1ccc(Nc2c(S(=O)(=O)c3ccc(Cl)cc3)cnc3ccc(OCC)cc23)cc1	inconclusive: 20.6 µM [cytotoxic, single point]	
Cc1cc(-c2ccc(NS(=O)(=O)c3ccccc3)c(C)c2)ccc1NS(=O)(=O)c1ccccc1	inconclusive: 32.6 µM [cytotoxic, single point]	
COc1ccc(S(=O)(=O)N(Cc2cccs2)C2CCCC2)cc1	inconclusive: 23.1 µM [cytotoxic, single point]	
C[C@@H](CSc1ccc(Br)cc1)CN1CC[C@H](O)CCC1=O	inconclusive: 13 µM [cytotoxic, partial curve, poor fit]	
Cc1ccc(C(=O)CN2/C(=C(\O)c3ccccc3)C(=O)c3ccccc3S2(=O)=O)c(C)c1	inconclusive: 23.1 µM [cytotoxic, single point]	
O=C1C2CCCN2C(c2ccccc2)N1c1ccc(Cl)cc1 (stereo not drawn)	inconclusive: 10.3 µM [cytotoxic, partial curve, poor fit]	
Cc1c(C)n(Cc2ccc(F)cc2)c2ccc(C(=O)NCc3ccco3)cc12	inconclusive: 29.1 µM [cytotoxic, single point]	
CCOc1cc(N2CCOCC2)c(OCC)cc1NC(=O)c1cnccn1	inconclusive: 23.1 µM [rising, single point]	
Cc1cc(C)nc(NC(=O)c2c(F)c(F)c(F)c(C(=O)Nc3cc(C)cc(C)n3)c2F)c1	inconclusive: 18.4 µM [cytotoxic, single point]	
O=[N+]([O-])c1cccc(OCCCN2CCC(Cc3ccccc3)CC2)c1	inactive	
COc1ccc2ccccc2c1CNCc1ccccn1	inconclusive: 18.4 µM [cytotoxic, partial curve, poor fit]	
Cc1nc(SCc2nc3ccccc3[nH]2)c2oc3cc(Br)ccc3c2n1	inconclusive: 20.6 µM [cytotoxic, single point]	
O=C(N/N=C/c1sc(N2CCOCC2)nc1-c1ccccc1)c1cccc(S(=O)(=O)N2CCCC2)c1	active: 3.66 µM	
c1ccc(COc2cccc(-c3cc4nc(NCc5ccc6c(c5)OCO6)ccn4n3)c2)cc1	inconclusive: 29.1 µM [cytotoxic, single point]	
CCN(C(=O)CSc1nnc(-c2cccs2)o1)C1CCS(=O)(=O)C1 (stereo not drawn)	inactive	
COc1ccc(NC(=O)c2ccc(NCCCN3CCOCC3)c([N+](=O)[O-])c2)cc1	inconclusive: 16.4 µM [rising, partial curve, poor fit]	
COC(=O)CNC(=O)c1cccc(F)c1	inconclusive: 13 µM [cytotoxic, partial curve, poor fit]	
Cc1ccc(S(=O)(=O)/N=C(/Sc2ccccc2C(=O)O)c2ccccc2)cc1	inconclusive: 0.082 µM [rising, partial curve, poor fit]	
CC1=C/C(=N\OS(=O)(=O)c2ccccc2)C(C(C)C)=CC1=O	inconclusive: 29.1 µM [cytotoxic, single point]	

SMILES	Potency	activity change, negative = cytotoxic
Cc1ccc(Nc2nc3ccccc3c3nnc(C)n23)c(C)c1	inactive	
CCS(=O)(=O)c1ccc(NC(=O)c2ccccc2Cl)c(O)c1	inactive	
C=CCOc1ccc(C(=O)/C=C2/C(=O)Nc3ccccc32)cc1	inactive	
O=C(NCc1ccccc1)c1ccc2c(=O)[nH]c3c(C(=O)NCC4CCCO4)sc(=S)n3c2c1 (stereo not drawn)	inconclusive: 18.4 µM [rising, single point]	
COc1ccc(C2(O)CC3CCC(C2)N3c2nc(C)cc(C)c2C#N)cc1 (stereo not drawn)	inconclusive: 29.1 µM [cytotoxic, single point]	
CC(=O)Nc1ccc(C2=NN(c3ccccc3)C(c3ccccc3)C2)cc1 (stereo not drawn)	inconclusive: 23.1 µM [cytotoxic, single point]	
CCOCCCNC(=O)CCCn1nc(C)n2c(cc3sccc32)c1=O	inactive	
Cc1nc2c(OCc3ccc(Cl)cc3)cccn2c1N(C)Cc1cccs1	inconclusive: 29.1 µM [cytotoxic, single point]	
CC1=C(C(=O)Nc2cc(C)ccc2C)C(c2cccs2)NC(=S)N1 (stereo not drawn)	inactive	
O=C1CCN(Cc2ccc([N+](=O)[O-])cc2)CCN1[C@H](CO)c1ccccc1	inactive	
COc1ccc(-c2c[n+]3c4n2CCCCC4=C(c2ccccc2)C3)cc1	inconclusive: 29.1 µM [cytotoxic, single point]	
CCCCN(CCCC)CCNC(=O)CN1C(=O)CSc2ccc(S(=O)(=O)N3CCOCC3)cc21	inconclusive: 29.1 µM [cytotoxic, single point]	
Cc1ccccc1OCCCCn1c(CO)nc2ccccc21	inconclusive: 23.1 µM [cytotoxic, single point]	
COC(=O)c1ccccc1C(=O)c1cccc2ccccc12	inconclusive: 29.1 µM [cytotoxic, single point]	
Cc1cccc(CNC(=O)c2sc(=O)n(Cc3c(C)cccc3C)c2C)c1	inconclusive: 32.6 µM [cytotoxic, single point]	
O=C(Nc1ccc2c(c1)CCC2)c1ccc(Cl)nc1	inconclusive: 16.4 µM [cytotoxic, partial curve]	
Cc1noc(C)c1CSCC(=O)Oc1ccc(N(C)S(=O)(=O)c2ccccc2)cc1	inactive	
O=C(NCCN1C(=O)S/C(=C\c2ccc(OC(F)F)cc2)C1=O)c1cnccn1	active: 5.8 µM	
CC(Nc1cc(N2CCN(C(=O)C(C)(C)C)CC2)ccc1[N+](=O)[O-])c1ccccc1 (stereo not drawn)	inconclusive: 18.4 µM [cytotoxic, single point]	
CC[C@@H](C)[C@H](CNC)NC[C@@H](Cc1cccc2ccccc12)NCCc1cccc(C(F)(F)F)c1	inconclusive: 23.1 µM [cytotoxic, single point]	
Cc1cc(NC(=O)c2sc(Nc3ccc(F)c(Cl)c3)nc2N)no1	inconclusive: 20.6 µM [cytotoxic, single point]	
